This passage reports binding results from PMC10870380.

Chains of the proteins cited; added tags and fusions are not shown.
UniProt O95639: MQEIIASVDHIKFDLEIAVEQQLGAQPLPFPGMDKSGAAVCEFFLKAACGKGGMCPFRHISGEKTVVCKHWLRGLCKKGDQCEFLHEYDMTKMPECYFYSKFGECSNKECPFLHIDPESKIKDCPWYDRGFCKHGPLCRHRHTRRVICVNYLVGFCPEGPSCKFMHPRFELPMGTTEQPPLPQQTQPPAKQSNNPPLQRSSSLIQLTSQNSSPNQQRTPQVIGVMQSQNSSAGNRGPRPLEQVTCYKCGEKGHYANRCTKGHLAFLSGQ

For this assay, the target named is CPSF4 (human (endogenous in human pancreatic cell lines; the line used for the IP is not stated)) (UniProt O95639). Nature of the assay: co-IP; immunoprecipitation of CPA complexes from cells with CPSF3 knockdown or control, or with CPSF3 inhibition (JTE-607); the amount bound decreases upon knockdown and is not affected by inhibition.

Results are given in words; binding and its absence hold for the method and conditions named. Binding seen in cells or lysates may run through a third protein. Some results given as binding are weak or reduced against the parent protein; the word gives no strength.

B1: CPSF2 (protein, UniProt Q9P2I0 1-782)
chain: MTSIIKLTTLSGVQEESALCYLLQVDEFRFLLDCGWDEHFSMDIIDSLRKHVHQIDAVLLSHPDPLHLGALPYAVGKLGLNCAIYATIPVYKMGQMFMYDLYQSRHNTEDFTLFTLDDVDAAFDKIQQLKFSQIVNLKGKGHGLSITPLPAGHMIGGTIWKIVKDGEEEIVYAVDFNHKREIHLNGCSLEMLSRPSLLITDSFNATYVQPRRKQRDEQLLTNVLETLRGDGNVLIAVDTAGRVLELAQLLDQIWRTKDAGLGVYSLALLNNVSYNVVEFSKSQVEWMSDKLMRCFEDKRNNPFQFRHLSLCHGLSDLARVPSPKVVLASQPDLECGFSRDLFIQWCQDPKNSIILTYRTTPGTLARFLIDNPSEKITEIELRKRVKLEGKELEEYLEKEKLKKEAAKKLEQSKEADIDSSDESDIEEDIDQPSAHKTKHDLMMKGEGSRKGSFFKQAKKSYPMFPAPEERIKWDEYGEIIKPEDFLVPELQATEEEKSKLESGLTNGDEPMDQDLSDVPTKCISTTESIEIKARVTYIDYEGRSDGDSIKKIINQMKPRQLIIVHGPPEASQDLAECCRAFGGKDIKVYMPKLHETVDATSETHIYQVRLKDSLVSSLQFCKAKDAELAWIDGVLDMRVSKVDTGVILEEGELKDDGEDSEMQVEAPSDSSVIAQQKAMKSLFGDDEKETGEESEIIPTLEPLPPHEVPGHQSVFMNEPRLSDFKQVLLREGIQAEFVGGVLVCNNQVAVRRTETGRIGLEGCLCQDFYRIRDLLYEQYAIV
Turning to B1, the binding result is listed as “binds”.

B2: cleavage and polyadenylation specificity factor 3 (enzyme, UniProt Q9UKF6 1-684)
chain: MSAIPAEESDQLLIRPLGAGQEVGRSCIILEFKGRKIMLDCGIHPGLEGMDALPYIDLIDPAEIDLLLISHFHLDHCGALPWFLQKTSFKGRTFMTHATKAIYRWLLSDYVKVSNISADDMLYTETDLEESMDKIETINFHEVKEVAGIKFWCYHAGHVLGAAMFMIEIAGVKLLYTGDFSRQEDRHLMAAEIPNIKPDILIIESTYGTHIHEKREEREARFCNTVHDIVNRGGRGLIPVFALGRAQELLLILDEYWQNHPELHDIPIYYASSLAKKCMAVYQTYVNAMNDKIRKQININNPFVFKHISNLKSMDHFDDIGPSVVMASPGMMQSGLSRELFESWCTDKRNGVIIAGYCVEGTLAKHIMSEPEEITTMSGQKLPLKMSVDYISFSAHTDYQQTSEFIRALKPPHVILVHGEQNEMARLKAALIREYEDNDEVHIEVHNPRNTEAVTLNFRGEKLAKVMGFLADKKPEQGQRVSGILVKRNFNYHILSPCDLSNYTDLAMSTVKQTQAIPYTGPFNLLCYQLQKLTGDVEELEIQEKPALKVFKNITVIQEPGMVVLEWLANPSNDMYADTVTTVILEVQSNPKIRKGAVQKVSKKLEMHVYSKRLEIMLQDIFGEDCVSVKDDSILSVTVDGKTANLNLETRTVECEEGSEDDESLREMVELAAQRLYEALTPVH
Turning to B2, the binding result was “binds”.
